Patent US5719151A, “Substituted benzene compounds” (priority 1990, dated 1998)
Some of these results come from one statement about several compounds together.

Sequences of proteins named here, by UniProt entry; tags and fusion partners are left off.
UniProt P09874, whole entry: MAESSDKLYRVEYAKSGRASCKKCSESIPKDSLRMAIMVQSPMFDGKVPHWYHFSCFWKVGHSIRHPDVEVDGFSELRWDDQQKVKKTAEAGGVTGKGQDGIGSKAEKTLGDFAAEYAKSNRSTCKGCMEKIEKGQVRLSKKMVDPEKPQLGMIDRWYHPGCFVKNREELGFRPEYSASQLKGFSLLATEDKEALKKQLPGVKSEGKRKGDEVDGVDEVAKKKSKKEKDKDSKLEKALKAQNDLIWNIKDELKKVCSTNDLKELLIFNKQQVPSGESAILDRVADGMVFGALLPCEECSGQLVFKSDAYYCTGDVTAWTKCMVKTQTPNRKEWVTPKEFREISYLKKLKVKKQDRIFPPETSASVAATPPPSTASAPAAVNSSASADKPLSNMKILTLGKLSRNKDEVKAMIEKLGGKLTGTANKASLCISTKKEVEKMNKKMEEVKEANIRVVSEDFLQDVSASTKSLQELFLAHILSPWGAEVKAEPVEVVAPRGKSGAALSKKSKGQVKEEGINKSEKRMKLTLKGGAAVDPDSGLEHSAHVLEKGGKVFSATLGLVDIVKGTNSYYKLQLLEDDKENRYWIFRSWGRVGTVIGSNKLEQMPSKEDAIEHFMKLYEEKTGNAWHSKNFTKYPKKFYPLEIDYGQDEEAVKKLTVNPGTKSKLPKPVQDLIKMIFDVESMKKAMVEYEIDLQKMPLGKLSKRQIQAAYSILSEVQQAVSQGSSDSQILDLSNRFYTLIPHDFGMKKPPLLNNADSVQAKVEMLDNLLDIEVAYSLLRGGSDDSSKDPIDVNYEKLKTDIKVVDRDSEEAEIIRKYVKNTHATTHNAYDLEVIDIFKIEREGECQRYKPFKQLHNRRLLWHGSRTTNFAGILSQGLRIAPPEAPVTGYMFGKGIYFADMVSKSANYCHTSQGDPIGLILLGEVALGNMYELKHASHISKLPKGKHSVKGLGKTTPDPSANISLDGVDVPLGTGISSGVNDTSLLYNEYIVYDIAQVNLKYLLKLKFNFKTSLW

target: poly(ADP-ribose)polymerase (Homo sapiens, UniProt P09874); test: Formation of covalent compounds (with the enzyme); type: biochemical; settings: not given

Ability to form covalent compounds, able to form covalent compounds:
C=CC(=O)Nc1ccccc1C(N)=O [Compound 5, 2-propenoylaminobenzamide]
CC=CC(=O)Nc1cccc(C(N)=O)c1 [Compound 13, 3-butenoylaminobenzamide]
C=CC(=O)Nc1cccc(C(N)=O)c1 [Compound 4, 3-propenoylaminobenzamide]
C=CC(=O)Nc1cccc(C(=O)OCC)c1 [Compound 11, Ethyl-m-propenoylaminobenzoate]
NC(=O)c1cccc(NC(=O)CBr)c1 [Compound 15, 3-bromoacetylaminobenzamide]
NC(=O)c1cccc(NC(=O)CCBr)c1 [Compound 16]
NC(=O)c1cccc(NC(=O)CCl)c1 [Compound 14, 3-chloroacetylaminobenzamide]
C=CC(=O)Nc1ccc(C(N)=O)cc1 [Compound 6, 4-propenoylaminobenzamide]
NC(=O)c1cccc(NC(=O)CCCl)c1 [Compound 7]

same assay, conditions: listed as compound 12

Ability to form covalent compounds, able to form covalent compounds:
C=CC(=O)Nc1cccc(C(=O)O)c1 [Compound 12, 3-propenoylaminobenzoic acid]
